Experimental data from publication PMC12152122.

By UniProt entry, the sequences of proteins in these tests, tags left out.
UniProt Q9Y266: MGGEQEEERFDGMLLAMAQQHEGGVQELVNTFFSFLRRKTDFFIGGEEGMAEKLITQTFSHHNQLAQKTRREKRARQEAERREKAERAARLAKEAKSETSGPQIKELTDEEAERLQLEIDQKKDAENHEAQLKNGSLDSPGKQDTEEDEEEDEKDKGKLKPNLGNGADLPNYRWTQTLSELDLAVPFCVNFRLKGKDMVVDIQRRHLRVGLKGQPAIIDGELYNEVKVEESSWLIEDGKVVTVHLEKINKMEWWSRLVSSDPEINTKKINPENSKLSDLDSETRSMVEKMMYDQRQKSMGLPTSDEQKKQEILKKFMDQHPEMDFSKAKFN

Molecular target: T1, RNF41 (bait of the immunoaffinity purification for mass spectrometry, T24 cells) (UniProt Q9H4P4)
T1 sequence: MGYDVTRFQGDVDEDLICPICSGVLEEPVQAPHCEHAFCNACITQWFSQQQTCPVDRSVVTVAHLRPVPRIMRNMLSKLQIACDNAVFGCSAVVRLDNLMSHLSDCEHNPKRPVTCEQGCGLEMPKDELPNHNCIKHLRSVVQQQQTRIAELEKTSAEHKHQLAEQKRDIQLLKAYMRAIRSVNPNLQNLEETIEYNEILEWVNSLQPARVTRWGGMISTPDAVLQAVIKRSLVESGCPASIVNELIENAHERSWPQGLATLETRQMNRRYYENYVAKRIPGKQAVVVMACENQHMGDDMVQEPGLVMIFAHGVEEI
Experiment: affinity purification with mass spectrometry; immunoaffinity purification of RNF41 from T24 cells, silver staining, mass spectrometry

Nuclear distribution protein C (NUDC) (endogenous, T24 cells) (from UniProt Q9Y266 1-331)
binding: binds

These are yes or no findings as the source states them, for the method shown. In cells and extracts the contact can be indirect. Here binding means that the protein was enriched with, or labelled near, the bait; the list need not be complete.
